Screen size: about 300,000 compounds; about 3,700 (1.2%) were called active. Inconclusive means that the source gave no clear call. Such entries were picked first, then a sample of the others. The call rests on the fitted dose curve; tested in HEK293 cells. Potencies of inconclusive entries are doubtful fits and often do not repeat.
Assay: qHTS for Inhibitors of binding or entry into cells for Lassa Virus; further: nearly all actives have a fitted effect of over 50% in size
Details: Lassa virus pseudotype entry inhibition, cell reporter; activity change, negative = inhibition: at 37.9 µM (top of the series) unless noted
On the % scale 0 is the no-effect control and ±100 the full control effect; potency means the concentration at half of the fitted maximal effect.

SMILES | activity change, negative = inhibition | Potency
CCS(=O)(=O)N1CC(=O)N(c2cccc(Cl)c2C)C(C)(C(=O)NC2CCCCC2)C1 (configuration not stated) | inactive: 10.9% [at 46.1 µM] | 
O=S(=O)(c1ccc(N=C2NN=C(c3cc(F)ccc3F)CS2)cc1)N1CCOCC1 |  | active: 12.6 µM
CCn1c(-c2nonc2N)nc2c(C#CC(C)(C)O)ncc(OCC3CCCN3)c21 (configuration not stated) |  | inconclusive: 0.791 µM [inhibitor, full curve, poor fit]
COc1ccc(C(=O)NC2=Nc3ccccc3N=C(C)C2c2ccccc2)cc1 (configuration not stated) |  | inconclusive: 35.5 µM [inhibitor, single point]
CCOC(=O)c1cc(-c2ccccc2)n(CC(=O)N(C)c2ccc(OC)cc2)c1C |  | inconclusive: 35.5 µM [inhibitor, single point]
N/C(Cc1ccc([N+](=O)[O-])cc1)=N\OC(=O)c1ccco1 |  | inconclusive: 1.16 µM [inhibitor, full curve, poor fit]
COc1cc(-c2nc(Cn3nnc(C(=O)Nc4cc(C)cc(C)c4)c3C)c(C)o2)cc(OC)c1OC |  | inconclusive: 31.6 µM [inhibitor, single point]
Nn1c(CN2CCCCC2)nc2ccccc2c1=O | inactive: -2.93% | 
CCCCC(CC)CNC(=O)CCCn1c(=O)[nH]c2ccsc2c1=O (configuration not stated) |  | inconclusive: 1.78 µM [activator, partial curve, poor fit]
Cc1ccnc2nc(C(=O)OCC(=O)NCCc3ccc(Cl)cc3)nn12 | inactive: 13.8% | 
O=C(O)c1cccc(NC(=S)NC(=O)c2ccc3ccccc3c2)c1 |  | active: 0.794 µM
CC(C)(O)C#Cc1ccc([C@@H]2C[C@H]3CN(c4ccccc4)C(=O)[C@]34CCCN24)s1 |  | inconclusive: 7.94 µM [inhibitor, partial curve, poor fit]
CN1CCN(C(=S)c2ccc(N(C)C)cc2)CC1 | inactive: -9.38% | 
CCn1cc(C(=O)NCc2ccccc2)c(=O)c2cc(F)c(N3CCN(C(=O)c4ccco4)CC3)cc21 |  | inconclusive: 17.8 µM [inhibitor, single point]
Cc1nnc(SCC(=O)Nc2ccc(Br)cc2)[nH]c1=O | inactive: 30.1% [at 46.1 µM] | 
O=C(c1cccnc1)n1nc(NCc2ccccc2)nc1NCc1ccccc1 | inactive: 0.442% [at 46.1 µM] | 
CC(C)(CCO)Nc1ncnc2onc(-c3ccc(F)cc3)c12 | inactive: 9.56% [at 46.1 µM] | 
CC(=O)c1c(N2CCOCC2)[nH]c(-c2ccccc2)nc1=S | inactive: 3.1% | 
COc1ccc(S(=O)(=O)N2CCOCC2)cc1NC(=O)/C=C/c1ccccc1 |  | inconclusive: 7.08 µM [inhibitor, full curve, poor fit]
CC1(C)OC(c2ccccc2)=C/C(=C/C=N/NC(=O)c2ccncc2)O1 |  | inconclusive: 10 µM [inhibitor, partial curve, poor fit]
COc1cccc(NC(=O)Nc2cc(C)ccc2F)c1 |  | inconclusive: 25.9 µM [activator, single point]
CCCCN(CCCC)CC(O)Cn1cc(/C=C/C(=O)c2ccccc2)c2ccccc21 (configuration not stated) |  | inconclusive: 35.5 µM [inhibitor, single point]
CC(=O)Nc1ccc(NC(=O)C(C)OC(=O)c2ccc3[nH]c(C)c(C)c3c2)cc1 (configuration not stated) |  | inconclusive: 5.01 µM [inhibitor, full curve, poor fit]
Cc1ccc(-c2n[nH]c(=S)n2/N=C/C=C/c2ccccc2[N+](=O)[O-])cc1 |  | active: 12.6 µM

By substructure: the entries above containing a furan ring, fused or not.
SMILES | activity change, negative = inhibition | Potency
N/C(Cc1ccc([N+](=O)[O-])cc1)=N\OC(=O)c1ccco1 |  | inconclusive: 1.16 µM [inhibitor, full curve, poor fit]
CCn1cc(C(=O)NCc2ccccc2)c(=O)c2cc(F)c(N3CCN(C(=O)c4ccco4)CC3)cc21 |  | inconclusive: 17.8 µM [inhibitor, single point]

Later entries

SMILES | activity change, negative = inhibition | Potency
O=C1CN(C(=O)Cn2ncc(Cl)c(Cl)c2=O)c2ccccc2N1 |  | inconclusive: 35.5 µM [inhibitor, single point]
Cc1cc(N2CCCCC2)nc2ccc(NC(=O)c3cccc(F)c3)cc12 |  | inconclusive: 35.5 µM [inhibitor, single point]
COc1ccc(Nc2ccc(N3C(=O)CC(C)C3=O)cc2[N+](=O)[O-])cn1 (configuration not stated) |  | inconclusive: 5.62 µM [inhibitor, single point]
Cn1c(SCC(=O)c2ccccc2)ncc(C(=O)Nc2ccccc2)c1=O | inactive: 12.5% | 
COc1ccc(S(=O)(=O)N(CCc2ccccc2)CC(=O)O)cc1C |  | inconclusive: 20.6 µM [activator, single point]
O=C(NC(=S)Nc1ccc2c(c1)OCO2)c1ccc(Cl)cc1 |  | inconclusive: 15.8 µM [inhibitor, single point]
CC1CCN(S(=O)(=O)c2ccc3c(c2)N(CC(=O)NC(C)c2ccccc2)C(=O)CO3)CC1 (configuration not stated) | inactive: -1.4% [at 46.1 µM] | 
CC1=C(c2ccccc2)C(O)(c2ccccc2)C(C)C1=O (configuration not stated) | inactive: -29.1% [at 46.1 µM] | 
O=C(NC(=S)Nc1cccc2[nH]ncc12)c1ccccc1 | inactive: 4.25% [at 46.1 µM] | 
Nc1nnc(-c2cn(-c3ccccc3)nc2-c2ccccc2)o1 | inactive: 8.88% | 
Cc1noc(C)c1CSc1nnc(C)c(=O)[nH]1 | inactive: -16% | 
CC(=O)c1cnc(Nc2ccc(C)cc2)s1 |  | inconclusive: 6.31 µM [activator, single point]
COc1ccc(C2c3c(oc4ccc(Cl)cc4c3=O)C(=O)N2CCN2CCOCC2)cc1 (configuration not stated) | inactive: 2.44% | 
CCCCc1nc2ccccc2n2c(-c3ccc(C)cc3)c3c(=O)n(C)c(=O)n(C)c3c12 |  | inconclusive: 1.41 µM [activator, partial curve, poor fit]
O=S(=O)(Nc1cccc(-c2ccc(N3CCCCC3)nn2)c1)c1cccc(F)c1 |  | inconclusive: 35.5 µM [inhibitor, single point]
COc1cc(C=CC(=O)OCC=Cc2ccc3c(c2)OCO3)cc(OC)c1OC |  | inconclusive: 25.1 µM [inhibitor, single point]
Cc1cc2nsnc2c(S(=O)(=O)N2CCN(C)CC2)c1C | inactive: -15.9% [at 46.1 µM] | 
Cc1noc(C)c1C(=O)NCc1ccccc1F | inactive: -0.0021% | 
CCOCc1cnc(C)nc1NCC(=O)c1c(C)[nH]c2ccccc12 | inactive: -5.05% | 
COc1cc(CNCC(C)C)cc(Br)c1OCC(=O)Nc1ccccc1 | inactive: -13% | 
COc1ccc(NC(=S)NC(NC(=O)CF)C(Cl)(Cl)Cl)c([N+](=O)[O-])c1 (configuration not stated) | inactive: -9.39% | 
CC(=O)Oc1c(C(=O)c2nnc(C)o2)c(=O)n(Cc2ccccc2)c2ccccc12 |  | inconclusive: 17.8 µM [inhibitor, single point]
COC(=O)c1cc(NC(=O)c2cccnc2)ccc1N1CCOCC1 |  | inconclusive: 1.26 µM [inhibitor, single point]
